Drawing on PMC7862700, this text covers binding signal for 40 sequences.

The list shows a part of the results. Construct or isoform of the protein are uncertain.

This assay concerns the target T1, ELF2 (UniProt Q15723).
T1 sequence: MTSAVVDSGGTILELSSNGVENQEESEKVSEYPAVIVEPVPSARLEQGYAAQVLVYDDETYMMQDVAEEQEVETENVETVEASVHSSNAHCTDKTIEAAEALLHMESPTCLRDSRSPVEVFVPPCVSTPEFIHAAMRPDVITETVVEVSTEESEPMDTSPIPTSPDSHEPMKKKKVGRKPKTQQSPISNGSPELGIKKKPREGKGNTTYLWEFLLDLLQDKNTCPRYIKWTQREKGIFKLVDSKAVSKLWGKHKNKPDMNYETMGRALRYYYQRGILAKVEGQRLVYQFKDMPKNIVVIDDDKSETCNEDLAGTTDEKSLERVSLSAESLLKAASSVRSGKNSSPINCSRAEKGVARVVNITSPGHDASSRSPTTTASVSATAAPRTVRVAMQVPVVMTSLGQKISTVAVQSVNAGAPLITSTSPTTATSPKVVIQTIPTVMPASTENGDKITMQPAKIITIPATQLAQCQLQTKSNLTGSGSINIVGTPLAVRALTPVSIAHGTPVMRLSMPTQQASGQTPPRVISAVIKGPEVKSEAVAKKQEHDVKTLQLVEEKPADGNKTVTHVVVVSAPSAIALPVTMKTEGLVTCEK
Put plainly: DAPPL (digital affinity profiling via proximity ligation, sequencing). Particulars: 10 mM Tris-HCl pH 7.5, 50 mM NaCl, 1 mM DTT, 4% glycerol, room temperature, 30 min; GST-TFs on glutathione beads, 16-mer random dsDNA library, 0.1% …; high values mean tight binding; double strand, one strand shown; scale: fold enrichment (6-mer frequency, TF over GST control).
As for ACAACT, the binding signal stood at 1.38. Sequence GTTCAC registered a binding signal of 1.2.

Regarding CTCGGT, the binding signal is 1.03.

For the sequence AAAAAC, the binding signal was found to be 1.27. The sequence TATATC showed a binding signal of 1.7. The value for ATAATG was 1.09; that for TTCGCT was 1.19; that for CCTCCT was 1.48.

Take AGAAAC: the binding signal stood at 0.969. Turning to ATGTGG, the binding signal amounted to 1.17.

In turn, ACATGC had a binding signal of 1.27. As for TGCCTC, the binding signal is 1.31. Sequence ATGAAG registered a binding signal of 1.02. The figure for AGGTTC is 0.891; for CGTATA it is 1.19; for ATTCAC it is 1.23.

ACGTAC returned a binding signal of 1.12. The value for ATCAGA was 0.905; that for TAATCG was 0.99. AGAACA: the binding signal was found to be 1.03. The figure for TAACGG is 1.04; for TGCCCC it is 1.18. In the case of ATTCGC, the binding signal is 1.16. The figure for ATATAA is 1.2; for CACCGA it is 0.981; for GGAATG it is 0.858. The value for ATTCGG was 0.915; that for GTTTCT was 1.32. The figure for TTATCG is 1.18; for CATTAA it is 0.997; for TCCGTA it is 1.94. CTTACT: the binding signal was 1.27. The figure for ATACGA is 1.06.

CAAATC returned a binding signal of 1.08.

TAAACT yielded a binding signal of 1.16.

ACAGCT had a binding signal of 1.09.

For the sequence ATCTTG, the binding signal was determined as 1.24.

CAGAAG displayed a binding signal of 0.739. For the sequence CCCCTA, the binding signal was 1.1. Take GTTCGA: the binding signal was determined as 1.06.
